The other results are listed elsewhere or left out. Many values rest on one well or one pass, so single values are uncertain.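 Cells were imaged in 1,536-well plates, and nuclei stained with an antibody against cleaved PARP were counted against all DNA-stained nuclei to give the apoptosis fraction. Screening doses were chosen to leave most cells alive, and resting and induced cleaved-PARP levels differ strongly between cell lines.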
Key:
Experiment in all cases: cleaved PARP positive nuclei fraction relative to DMSO control; melanoma cells; higher = more apoptosis
Conditions in all cases: library dose: low library concentration; 72 h
MZ2-MEL = system: MZ2-MEL
MeWo = system: MeWo
RPMI7951 = system: RPMI7951
RVH-421 = system: RVH-421
SkMel28 = system: SkMel28
SkMel2 = system: SkMel2
SkMel30 = system: SkMel30
UACC62 = system: UACC62
WM115 = system: WM115
WM1716 = system: WM1716
WM1745 = system: WM1745
WM3526 = system: WM3526
WM3619 = system: WM3619
WM451Lu = system: WM451Lu

| SMILES | cleaved PARP positive nuclei fraction (MZ2-MEL) | cleaved PARP positive nuclei fraction (MeWo) | cleaved PARP positive nuclei fraction (RPMI7951) | cleaved PARP positive nuclei fraction (RVH-421) | cleaved PARP positive nuclei fraction (SkMel28) | cleaved PARP positive nuclei fraction (SkMel2) | cleaved PARP positive nuclei fraction (SkMel30) | cleaved PARP positive nuclei fraction (UACC62) | cleaved PARP positive nuclei fraction (WM115) | cleaved PARP positive nuclei fraction (WM1716) | cleaved PARP positive nuclei fraction (WM1745) | cleaved PARP positive nuclei fraction (WM3526) | cleaved PARP positive nuclei fraction (WM3619) | cleaved PARP positive nuclei fraction (WM451Lu) |
| --- | --- | --- | --- | --- | --- | --- | --- | --- | --- | --- | --- | --- | --- | --- |
| CCCCCCCCCCCCCCCCCCOP(=O)([O-])OC1CC[N+](C)(C)CC1 [Perifosine] + C=C(c1ccc(C(=O)O)cc1)c1cc2c(cc1C)C(C)(C)CCC2(C)C [Bexarotene] (first compound 0.4 µM, partner dose 2 µM) | 177% | 99.6% | 82.4% | 105% | 105% | 39% | 91.7% | 273% | 37.1% | 144% | 119% | 102% | 104% | 107% |
| Cc1cc(Nc2cc(N3CCN(C)CC3)nc(Sc3ccc(NC(=O)C4CC4)cc3)n2)n[nH]1 [Tozasertib] + O=C(Nc1cc(C(F)(F)F)cc(C(F)(F)F)c1)c1cc(Cl)ccc1O [IMD0354] (first compound 0.006 µM, partner dose 0.016 µM) | 281% | 54% | 91.8% | 51.2% | 83.8% | 118% | 93.1% | 41.9% | 18.9% | 159% | 100% | 104% | 109% | 94.9% |
| N#CC[C@H](C1CCCC1)n1cc(-c2ncnc3[nH]ccc23)cn1 [ruxolitinib] + O=C(Nc1cc(C(F)(F)F)cc(C(F)(F)F)c1)c1cc(Cl)ccc1O [IMD0354] (first compound 1 µM, partner dose 0.016 µM) | 52.8% | 162% | 45.6% | 204% | 123% | 159% | 60.8% | 28.6% | 112% | 996% | 94% | 81.6% | 98.5% | 80.9% |
| O=C(/C=C/c1cccnc1)NCCCCC1CCN(C(=O)c2ccccc2)CC1 + Nc1ncn([C@H]2C[C@H](O)[C@@H](CO)O2)c(=O)n1 [decitabine] (first compound 0.01 µM, partner dose 0.1 µM) | 1060% | 77.9% | 108% | 75.5% | 84% | 930% | 76.3% | 180% | 107% | 117% | 184% | 143% | 112% | 95.2% |
| Cc1cc(Nc2cc(N3CCN(C)CC3)nc(Sc3ccc(NC(=O)C4CC4)cc3)n2)n[nH]1 [Tozasertib] + C#Cc1cccc(Nc2ncnc3cc(OCCOC)c(OCCOC)cc23)c1 [erlotinib] (first compound 0.006 µM, partner dose 0.8 µM) | 73.2% | 146% | 40.2% | 55.6% | 75.2% | 47.7% | 129% | 67% | 41.7% | 125% | 109% | 340% | 74.8% | 59.5% |
| N#CC[C@H](C1CCCC1)n1cc(-c2ncnc3[nH]ccc23)cn1 [ruxolitinib] + Nc1ccn([C@@H]2O[C@H](CO)[C@@H](O)C2(F)F)c(=O)n1 [gemcitabine] (first compound 1 µM, partner dose 0.0004 µM) | 129% | 99.8% | 59.1% | 207% | 97.8% | 113% | 105% | 61.2% | 113% | 94.6% | 117% | 77.6% | 137% | 327% |
| COc1cc([C@@H]2c3cc4c(cc3[C@@H](O[C@@H]3O[C@@H]5CO[C@@H](C)O[C@H]5[C@H](O)[C@H]3O)[C@H]3COC(=O)[C@H]23)OCO4)cc(OC)c1O [etoposide] + CC1(C)CCC(c2ccc(Cl)cc2)=C(CN2CCN(c3ccc(C(=O)NS(=O)(=O)c4ccc(N[C@H](CCN5CCOCC5)CSc5ccccc5)c(S(=O)(=O)C(F)(F)F)c4)cc3)CC2)C1 [ABT263] (first compound 0.02 µM, partner dose 0.4 µM) | 174% | 558% | 158% | 77.5% | 62.3% | 231% | 101% | 49.1% | 415% | 72.4% | 804% | 123% | 98.4% | 69.4% |
| O=c1[nH]nc(Sc2ncc([N+](=O)[O-])s2)n1-c1ccc2c(c1)OCCO2 + Cn1nnc2c(C(N)=O)ncn2c1=O [temozolomide] (first compound 0.2 µM, partner dose 2 µM) | 92.5% | 198% | 121% | 91.9% | 66.3% | 168% | 139% | 140% | 72.3% | 85.4% | 101% | 32.3% | 102% | 176% |
| O=c1[nH]nc(Sc2ncc([N+](=O)[O-])s2)n1-c1ccc2c(c1)OCCO2 + C#Cc1cccc(Nc2ncnc3cc(OCCOC)c(OCCOC)cc23)c1 [erlotinib] (first compound 0.2 µM, partner dose 0.8 µM) | 88.3% | 46.9% | 85.4% | 122% | 47.4% | 129% | 64.3% | 189% | 82.2% | 181% | 111% | 19% | 92.8% | 107% |
| Cc1ccc(Nc2nccc(N(C)c3ccc4c(C)n(C)nc4c3)n2)cc1S(N)(=O)=O [Pazopanib] + CC(=O)O[C@@]12CO[C@@H]1C[C@H](O)[C@@]1(C)C(=O)[C@H](O)C3=C(C)[C@@H](OC(=O)[C@H](O)[C@@H](NC(=O)OC(C)(C)C)c4ccccc4)C[C@@](O)([C@@H](OC(=O)c4ccccc4)[C@H]21)C3(C)C [Docetaxel] (first compound 0.4 µM, partner dose 0.0001 µM) | 248% | 423% | 173% | 279% | 136% | 615% | 484% | 417% | 259% | 1150% | 140% | 87.8% | 108% | 126% |
| O=C(/C=C/c1cccnc1)NCCCCC1CCN(C(=O)c2ccccc2)CC1 + OCc1c[nH]c2ccccc12 [Indole-3-carbinol] (first compound 0.01 µM, partner dose 0.8 µM) | 104% | 36.4% | 286% | 135% | 78% | 593% | 85.2% | 129% | 151% | 48.6% | 90.8% | 165% | 105% | 159% |
| CCCCCCCCCCCCCCCCCCOP(=O)([O-])OC1CC[N+](C)(C)CC1 [Perifosine] + Cc1nc(Nc2ncc(C(=O)Nc3c(C)cccc3Cl)s2)cc(N2CCN(CCO)CC2)n1 [dasatanib] (first compound 0.4 µM, partner dose 0.004 µM) | 104% | 88.4% | 94.6% | 122% | 407% | 177% | 89.8% | 359% | 126% | 36.2% | 117% | 52.3% | 75.5% | 140% |
| O=C(Nc1cc(C(F)(F)F)cc(C(F)(F)F)c1)c1cc(Cl)ccc1O + C=C(c1ccc(C(=O)O)cc1)c1cc2c(cc1C)C(C)(C)CCC2(C)C [Bexarotene] (first compound 0.016 µM, partner dose 2 µM) | 108% | 108% | 126% | 106% | 134% | 154% | 117% | 83.7% | 82.5% | 71.2% | 108% | 240% | 111% | 107% |
| N#CC[C@H](C1CCCC1)n1cc(-c2ncnc3[nH]ccc23)cn1 [ruxolitinib] + CC(C)C[C@H](NC(=O)[C@H](Cc1ccccc1)NC(=O)c1cnccn1)B(O)O [Bortezomib] (first compound 1 µM, partner dose 0.001 µM) | 188% | 145% | 59% | 189% | 155% | 84.3% | 130% | 42.3% | 38.6% | 52.3% | 103% | 40% | 146% | 91.1% |
| COc1cc([C@@H]2c3cc4c(cc3[C@@H](O[C@@H]3O[C@@H]5CO[C@@H](C)O[C@H]5[C@H](O)[C@H]3O)[C@H]3COC(=O)[C@H]23)OCO4)cc(OC)c1O [etoposide] + Clc1ccc(Nc2nnc(Cc3ccncc3)c3ccccc23)cc1 [vatalanib] (first compound 0.02 µM, partner dose 2 µM) | 124% | 144% | 102% | 66.6% | 188% | 144% | 43.1% | 67.1% | 98.7% | 41.9% | 89.6% | 258% | 183% | 66.4% |
| N#CC[C@H](C1CCCC1)n1cc(-c2ncnc3[nH]ccc23)cn1 [ruxolitinib] + CC1(C)CCC(c2ccc(Cl)cc2)=C(CN2CCN(c3ccc(C(=O)NS(=O)(=O)c4ccc(N[C@H](CCN5CCOCC5)CSc5ccccc5)c(S(=O)(=O)C(F)(F)F)c4)cc3)CC2)C1 [ABT263] (first compound 1 µM, partner dose 0.4 µM) | 361% | 818% | 229% | 31.4% | 65.2% | 295% | 118% | 66.3% | 308% | 157% | 394% | 60.1% | 113% | 62.1% |
| O=C(/C=C/c1cccnc1)NCCCCC1CCN(C(=O)c2ccccc2)CC1 + CNC(=O)c1cc(Oc2ccc(NC(=O)Nc3ccc(Cl)c(C(F)(F)F)c3)cc2)ccn1 [sorafenib] (first compound 0.01 µM, partner dose 0.4 µM) | 789% | 72.4% | 131% | 496% | 43.9% | 1760% | 70.9% | 98.3% | 51.1% | 73.6% | 165% | 80.9% | 111% | 146% |
| O=C(/C=C/c1cccnc1)NCCCCC1CCN(C(=O)c2ccccc2)CC1 + Nc1cccc2c1CN(C1CCC(=O)NC1=O)C2=O [lenalidomide] (first compound 0.01 µM, partner dose 1 µM) | 449% | 66.5% | 47.8% | 147% | 75.3% | 1980% | 124% | 142% | 62% | 144% | 105% | 127% | 97.6% | 94.7% |
| O=C(/C=C/c1cccnc1)NCCCCC1CCN(C(=O)c2ccccc2)CC1 + Cc1nc(Nc2ncc(C(=O)Nc3c(C)cccc3Cl)s2)cc(N2CCN(CCO)CC2)n1 [dasatanib] (first compound 0.01 µM, partner dose 0.004 µM) | 1140% | 81.9% | 84.2% | 271% | 50.3% | 1050% | 125% | 192% | 95.2% | 109% | 125% | 97% | 115% | 321% |

Individual results from the entries so far.
In cleaved PARP positive nuclei fraction (WM3526), O=C(/C=C/c1cccnc1)NCCCCC1CCN(C(=O)c2ccccc2)CC1 + Nc1ncn([C@H]2C[C@H](O)[C@@H](CO)O2)c(=O)n1 [decitabine] (first compound 0.01 µM, partner dose 0.1 µM) shows 143%
In cleaved PARP positive nuclei fraction (RVH-421), Cc1cc(Nc2cc(N3CCN(C)CC3)nc(Sc3ccc(NC(=O)C4CC4)cc3)n2)n[nH]1 [Tozasertib] + C#Cc1cccc(Nc2ncnc3cc(OCCOC)c(OCCOC)cc23)c1 [erlotinib] (first compound 0.006 µM, partner dose 0.8 µM) shows 55.6%
